No constants are given. Whether binding was seen depends on the method and setting. Some binding calls cover weakened binding; strength is not graded here.
Target: BoNT/E-cleaved SNAP-25 (UniProt P60880)
Assay: ELISA and Western blots

The chains behind the UniProt entries cited, without tags or fusion partners. Residues count along the entry.
UniProt P60880, residues 1-180: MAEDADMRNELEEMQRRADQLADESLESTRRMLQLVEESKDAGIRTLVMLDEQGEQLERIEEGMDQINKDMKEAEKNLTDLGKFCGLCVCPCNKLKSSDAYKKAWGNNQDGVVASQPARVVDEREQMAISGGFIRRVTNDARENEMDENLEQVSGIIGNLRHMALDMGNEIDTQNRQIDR

B1: mouse monoclonal antibody produced by hybridoma pCNEI 32-7-1, 3614-000 (antibody, V domains shown)
VH: EVQLVESGGGLVQPKGSLKLSCAASGYTFNTYAVNWVRQAPGKGLEWVARIRSKSYNYVTYYADSVKDRFTISRDDSQSMLYLQMNNLKTEDTAMYYCVKGNGNYVSFAYWGQGTLVTVSA
VL: QLVLTQSSSASFSLGASAKLTCTLSSQHNTYTIEWYQQQPLKPPKYVMELKKDGSHSTGDGIPDRFSGSSSGADRYLSISNIQPEDEAIYICGVGDTIKEQFVYVFGGGTKVTVL
B1 was tested, and the binding was “binds”.
